In all, about 52,000 sequences went through this assay and about 210 (0.4%) were called active.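 The calls were made as follows: active = gene whose silencing raises cell survival under the drug, median off-target-corrected z-score across its silencing RNAs 2 or more; inactive = the rest.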 This is one part of the list.

The source of these data is PubChem BioAssay AID1347423 (Functional Genomics Laboratory (NCATS/FGL), 2020).

The nature of the experiment: Resistance to Poly (ADP-Ribose) Polymerase inhibitor: Gene Identification via Genome-wide siRNA Screen. Particulars: mouse BRCA2 R2336H ES cells, olaparib, CellTiter-Glo viability; stronger effect = higher value. An outline of the steps: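 Mouse BRCA2 R2336H ES cells were reverse-transfected with siRNA (20 nM final), treated at 48 h with 500 nM olaparib, and read by CellTiter-Glo after 72 h. Scores: MAD-based z per siRNA, median per gene, seed off-target correction.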
Turning to GGUCAGGAAACCAUCAUGATT against Ysg2, the z-score was inactive: 1.85.

With GGUGGAAAUGGGAGAAUUUTT against Sparc, the z-score was inactive: -0.346.

For the sequence “GCUCAGAAACACCUUCUGGTT against 2310011J03Rik”, the z-score was inactive: 0.201.

In the case of CCUUGACCCAGAUUGAGAATT against BC024502, the z-score was inactive: -0.941.

Regarding GUUGAUCGUGCAGAUCAAGTT against Diras1, the z-score is inactive: 0.532.

For “GCUACGUAAACGGAAGGCUTT against 3830405G04Rik”, the z-score is inactive: 0.0565.

On to GGGUUAUACCAAGUCCAUUTT against Mapk1, for which the z-score is active: 3.33.

For the sequence GGUAAACGAUGUACAGUUGTT against Notch2, the z-score was inactive: 0.248.

As for “GGUAAAAGCUGUUUGAGAGTT against 2010002N04Rik”, the z-score is inactive: 1.5.

With “GGCCAUGUUCGAGCAAACUTT against 4833422F06Rik”, the z-score was inactive: 0.85.

On to GGUGAUGUGCCCAUGACAGTT against Ap1m2, for which the z-score is inactive: 1.22.

For GCCUUCUUCUACCAUAGCATT against Thy28, the z-score was inactive: 0.597.

Regarding GGAUGAGCAGAAAUGUGUATT against AI840980, the z-score was inactive: -0.347.

On to GGAUUGCAAAUGGUUUAAUTT against Chchd2, for which the z-score was inactive: 0.963.

Regarding GGAUCAUAAAGUCAAAGCUTT against V1re12, the z-score is inactive: -0.36.

With GGAGGAGACUCCUAAGAAGTT against BC016188, the z-score is inactive: 0.636.

On to GGAACAGGAUACGUACGCUTT against Acat1, for which the z-score was inactive: 0.362.

Consider GGAUGAGUCUUUCUAGUUATT against Nipa1, for which the z-score was inactive: -0.0749.

CCUUCAAUGAAAUAAGCACTT against Olfr1155: the z-score was inactive: 0.54.

Regarding GGAAGUUUACCAGUCUAUCTT against Pik3c2a, the z-score is inactive: -1.04.

GCCGUUAUCUGGACUUUACTT against Zpbp2: the z-score was inactive: -0.565.

Take GGGAAAUUUCUCUACAUCUTT against Npas1: the z-score is inactive: 3.06.

Turning to GGCUUCAUGAGUAGGAUUATT against Olfr943, the z-score is inactive: 1.42.

With “GCAACUUGACAUAUGACAGTT against 1700029G01Rik”, the z-score was inactive: 0.461.

On to GGACCACUACAUCAUAUACTT against Lcn4, for which the z-score is inactive: 0.276.

Turning to GGACAUCCAUUCAAGGCCUTT against Rtn3, the z-score is inactive: 1.05.

Take CCCUGGGUUCUGAUCUUAATT against Cd207: the z-score was inactive: -1.95.

Regarding “CCUUAAACCUCAGCUAAUGTT against 4932411L21Rik”, the z-score is inactive: -0.335.

As for “GGAAGAAGAGAAGUUACAGTT against 5133400G04Rik”, the z-score was inactive: -0.254.

Consider GGCAAACAUGAAUCUUACCTT against Pscd4, for which the z-score is inactive: 0.959.

“GGUUGAACGAAGGGAAAAATT against 2600016B03Rik”: the z-score is inactive: -2.18.

In the case of “CGGCUCACUAGGAUUAUACTT against 4922503E23Rik”, the z-score was inactive: -1.63.

For “GACUUCGGACAAAUGGUGCTT against 1110055J05Rik”, the z-score was inactive: 0.89.

With GCCUUAUAGGGAGAUCUUUTT against Tsnaxip1, the z-score is inactive: -0.998.

With GCUAUACGUGGUUUCCUCCTT against Gpr110, the z-score was inactive: -1.62.

Regarding GCCAGAAAUACCUGUCGGATT against Cdc37, the z-score was inactive: -1.89.

Turning to “GGGCAAAAUAGAAGUGAAUTT against 6330500D04Rik”, the z-score is inactive: -1.01.

In the case of “GGCCUUGAAAUCGUUUUUUTT against 3930402F23Rik”, the z-score was inactive: 1.03.

Take GGUUUACACUGACUAUGUGTT against Cdkl2: the z-score was inactive: 0.312.

Turning to GCUAGUGCGCAUGUUUCUCTT against Rasgrp2, the z-score is inactive: 0.0428.

On to GCGUGGAUAGUUUCACAGCTT against Fbp1, for which the z-score was inactive: 0.282.

Regarding “GCCUUCUUGAACUGAAAGATT against 2410030K01Rik”, the z-score was inactive: -1.3.

Turning to GGAGUAUCUAUGCUCAAUATT against Olfr794, the z-score was inactive: -0.338.

Consider GGUCUUGUAGAAAUUUGCCTT against Slc25a21, for which the z-score is inactive: 0.496.

On to GGAGAAAGAAUUCAUUUCCTT against Dnchc1, for which the z-score is inactive: 0.548.

Take GGUGUGAGGUAAUUUCAGATT against Snx22: the z-score is inactive: -0.782.

Take “CCUCUCCAACAACCAACUATT against 2900010D03Rik”: the z-score is inactive: -1.42.

GACAGCAUGAAGGACCUCUTT against Il17c: the z-score was inactive: -0.106.

On to GGAAGGCAAAUUCAAAUACTT against Serpinc1, for which the z-score was inactive: 0.706.

In the case of GGCGCAUCGUGGACUUCUUTT against Slc36a1, the z-score is inactive: -0.821.

For GGCGAAAUGAACACAAAGCTT against Edf1, the z-score is inactive: 0.917.

Take GGCUUUUUCCUCUACCCACTT against Trhde: the z-score was inactive: 0.762.

“GUAGCAGAGGCUUCACUAUTT against 4733401H18Rik”: the z-score was inactive: -0.828.

For the sequence CCCAGAAUUAAACAUAGCUTT against Rrh, the z-score is inactive: 1.2.

GGUUGGCAAUAAGUAUUACTT against Lpin1: the z-score is inactive: 0.303.

With GCAUUGCUAUUCAACUCCUTT against Marcks, the z-score was inactive: -0.225.

As for GUUCCUGAGUACCUAUGUCTT against Aqp7, the z-score was inactive: 0.243.

Take “UGAAUCACCACCCGGAAUGTT against 2700061N24Rik”: the z-score is inactive: 0.597.

GCACAUGUUCCUUACUUAUTT against Calcr: the z-score is inactive: 0.839.

As for GGACAUCACAGCAUAUCGUTT against Peli2, the z-score was inactive: 0.6.

For CCCUGAACAGGUCAUCUGUTT against Ctps2, the z-score was inactive: 1.06.

As to CCAACGUGCAGAAAUGUCUTT against Metrn, the z-score is inactive: 0.671.

With GCGUAAUGCUAGGAGAAGCTT against Celsr3, the z-score was inactive: 1.06.

Regarding GGAAGUCAAGAAGAAACCGTT against Zcwcc2, the z-score is inactive: -0.265.

On to CCCGGUAUUAAAUUUAAUGTT against Aox4, for which the z-score was inactive: 0.0496.

Turning to GCAGUUAUUCUGAAAGCAATT against Olfr1386, the z-score was inactive: -0.496.

For GGGACAAAAGCAAUCAAACTT against H2-M11, the z-score was inactive: -1.11.

Consider GGAGCUCGUUGACAAGAAGTT against BC018465, for which the z-score is inactive: -0.378.

As for GGACCACUAUAUCUUAACUTT against Cdh23, the z-score is inactive: -0.374.

Turning to GCAAAUAGUUGGGUAGGAGTT against Taz, the z-score was inactive: 1.29.

Take CCCACUUCUAUUGAGUCUGTT against Ppif: the z-score was inactive: -0.818.

On to “GGAGAGAAAGGAAAGACCGTT against 5033406L14Rik”, for which the z-score is inactive: 0.634.

With “GGAAGUCACGCUGAACAAATT against 2610040C18Rik”, the z-score was inactive: 0.297.

As to CCUAGCCAUGUGGUCAUAGTT against Tex264, the z-score is inactive: -0.768.

As to “GGUCCUGAUGAAGUUGUAGTT against 4833420K19Rik”, the z-score is inactive: -0.842.

For the sequence GCCUACAUCAUGUAAUAUATT against Cyp2s1, the z-score was inactive: -1.02.

As to “GGAAUUCUACCUGAAAAUCTT against 1110018G07Rik”, the z-score is inactive: 1.01.

Regarding CGUAGAGCUUCUCAUAUUATT against Olfr1436, the z-score was inactive: -0.774.

Consider CCAUUUGACGAAGGUAAUATT against Olfr180, for which the z-score was inactive: 0.865.

As for CGAAGAAGAAAUCUUUGGATT against Opn5, the z-score was inactive: 0.527.

Turning to GGGAGAAGUUCUGUAUAUUTT against Prdm5, the z-score was inactive: 3.76.

Consider CCAUCUAUGUGAGGUAUUATT against Tapbpl, for which the z-score is inactive: -1.02.

In the case of GGCAUUUACUUACUGUUCATT against Slc39a10, the z-score is inactive: -0.293.

For the sequence GCCUAUAACUUCAAGUAUCTT against Xab1, the z-score is inactive: -0.0258.

For the sequence GGGAGAAGCGAGCAAUAGATT against Pla2g3, the z-score was inactive: 0.55.

Take CGUUGCAGUCUAAGCUUGUTT against Rabac1: the z-score was inactive: 0.0786.

Consider “GGCGUGUUGAGACAAUCCUTT against 4930526D03Rik”, for which the z-score is inactive: -0.988.

Turning to GCAGUCAUCAAGGAUCAUUTT against Ncb5or, the z-score is inactive: -1.19.

Turning to GCACAAUUGCUCUAGGAUGTT against Slitrk3, the z-score was inactive: 0.521.

In the case of GGGAUACGACUAAACUAUUTT against Gucy1a3, the z-score is inactive: -0.0594.

On to CGUACUCUAUGAGGUGCCATT against Rab6ip1, for which the z-score was inactive: 0.703.

Regarding CGUGCAAGAAUGUAUUAGATT against Myo5a, the z-score is inactive: 0.949.

On to GGACCUUCAGGAAAUGGCUTT against Mrps14, for which the z-score was inactive: 0.374.

“CAUAUUCCUUGCAUUACAATT against A130052D22”: the z-score was inactive: 0.111.

Regarding GGUAGACCAGGAUUCAAAGTT against B3galt2, the z-score was inactive: 1.42.

On to GGAUGAGAAAGAAAAGCACTT against Mettl1, for which the z-score was inactive: -0.032.

With GCCUGAAAGGCCUCACAAATT against Tceb3, the z-score is inactive: 1.4.

Regarding GGAUACUGUCAUGUCUUUATT against Olfr1, the z-score is inactive: 0.615.

For the sequence CCUUCUCAACAGCGUGAUUTT against Dhx30, the z-score was inactive: 0.682.

On to GCUUGGUUUAACAAACAAGTT against Ppm1a, for which the z-score was inactive: 1.14.

On to CCUCCAAGAAGGAUUCCAGTT against AI451006, for which the z-score was inactive: -1.76.

Regarding GCAAGUCCACCAGACAACATT against Csh2, the z-score is inactive: 0.235.

Consider GGAUGGUCGAGUGUUUAUUTT against Sec13l1, for which the z-score was inactive: -2.87.

As to GGACCACAUUACUAUACCATT against Sort1, the z-score is inactive: 0.931.
